Test results published in US7556928B2, “Method of screening a population of cells” (One Cell Systems, Inc., priority 2001, dated 2009).
At least one structure is not confirmed: it was looked up by name or label, or the drawing left a doubt.

Test system: CRL-8018 hybridoma cells
Assay: In-vitro induced IgG isotype switching by sequential sublining and mIgG ELISA
Format: cell-based, mouse
Details: 7 days incubation
Procedure: Induction of Class-Switching Using CRL-8018 cell line, we investigated and evaluated methods of increasing the number class-switching events in-vitro. Cells were plated in 75 cm^2 flasks or in 12-well plates at 1×10^4/ml and incubated for 7 days in complete growth medium supplemented with:
Determination of In-vitro Induced Switching Rate Using Sequential Sublining CRL-8018 cells were resuspended in growth medium supplemented with mitogen(s)/growth factors as described above and plated out in ten 96-well plates at a density of 1,000 cells/well. Cells were cultured at 37° C., 5% CO2 in a humid incubator for 5 days. Cell culture supernates were collected and an isotype-specific ELISA performed. Briefly, 96-well flexible assay plates, previously coated with 10μg/plate of purified goat anti-mouse IgG (Jackson Immunochemicals) in 20 mM NaHCO3 (Sigma-Aldrich), 50 μl/well, were incubated overnight at 4° C. and then washed 3 times in Dulbecco's phosphate buffered saline without calcium and magnesium/0.2% Tween 20 (DPBS-/Tween) (Sigma-Aldrich). […]
100 μl of each of the culture supemates were harvested and incubated in the anti-IgG coated plates for 2 hr at RT. […] The reaction was halted with 0.5M H2SO4 (Sigma-Aldrich) and plates were read at […] on an ELx800 ELISA plate reader (Bio-TEK Instruments, Inc.). […]

CC1=C(/C=C/C(C)=C/C=C/C(C)=C/C(=O)O)C(C)(C)CCC1 [retinoic acid]
isotype switch induced in vitro: induced a witch to mIgGI and mIgG2b
